These are yes or no findings as the source states them, for the method shown. Some results given as binding are weak or reduced against the parent protein; the word gives no strength.
How the values were obtained:
[1] = target: T1, TLR4/MD2 expressed by THP1/XBlue/MD2/CD14 cells (human) (UniProt O00206+Q9Y6Y9); assay: flow cytometry on THP1/XBlue/MD2/CD14 cells
[2] = target: T2, recombinant TLR4 (toll-like receptor 4) (human, UniProt O00206 24-631, limits assumed); assay: solid phase binding assay, TLR4 coated at 5 ug/ml, anti-TREML1 detection, OD450
T2 construct: also called hTLR4

Amino acid sequences for entries named in this document (tags omitted). A change or cut given only in a name is not applied to a line headed by its entry. Residues count along the entry.
UniProt O00206, residues 24-631: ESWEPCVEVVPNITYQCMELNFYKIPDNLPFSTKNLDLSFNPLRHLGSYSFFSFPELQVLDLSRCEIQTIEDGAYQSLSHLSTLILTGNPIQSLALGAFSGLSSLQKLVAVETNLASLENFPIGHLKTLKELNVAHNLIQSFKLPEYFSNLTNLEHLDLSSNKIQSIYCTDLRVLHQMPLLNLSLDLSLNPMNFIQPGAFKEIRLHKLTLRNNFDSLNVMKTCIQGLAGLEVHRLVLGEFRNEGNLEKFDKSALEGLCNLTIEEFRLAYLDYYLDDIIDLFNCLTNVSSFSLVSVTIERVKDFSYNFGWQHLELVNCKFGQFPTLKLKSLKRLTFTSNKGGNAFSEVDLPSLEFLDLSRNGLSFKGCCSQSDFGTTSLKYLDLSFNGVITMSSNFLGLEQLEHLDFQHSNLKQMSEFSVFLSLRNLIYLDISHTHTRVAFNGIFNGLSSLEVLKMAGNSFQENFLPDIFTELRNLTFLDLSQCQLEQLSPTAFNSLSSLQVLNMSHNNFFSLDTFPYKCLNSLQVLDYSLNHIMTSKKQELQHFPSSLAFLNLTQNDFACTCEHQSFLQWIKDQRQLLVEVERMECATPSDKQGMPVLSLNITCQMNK
UniProt Q9Y6Y9: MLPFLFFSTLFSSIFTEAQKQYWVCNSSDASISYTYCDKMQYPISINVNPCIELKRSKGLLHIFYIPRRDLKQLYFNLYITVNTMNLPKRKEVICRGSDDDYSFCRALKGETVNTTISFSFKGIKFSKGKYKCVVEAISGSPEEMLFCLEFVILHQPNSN

[3] = target: T1, TLR4/MD2 expressed by THP1/XBlue/MD2/CD14 cells (human); assay: flow cytometry on THP1/XBlue/MD2/CD14 cells, TREML1 ECD 10 ug/ml, AF647-anti-TREML1 detection
[4] = target: T2, recombinant TLR4 (toll-like receptor 4); assay: solid phase binding assay, TLR4 coated

Measured: binding

B1: recombinant TREML1 ECD (human TREM-like transcript-1 extracellular domain) (ligand)
chain: QGIVGSLPEVLQAPVGSSILVQCHYRLQDVKAQKVWCRFLPEGCQPLVSSAVDRRAPAGRRTFLTDLGGGLLQVEMVTLQEEDAGEYGCMVDGARGPQILHRVSLNILPPEEEEETHKIGSLAENAFSDPAGSANPLEPSQDEKSIP
notes: Expressed in E. coli from pET30-TREML1 and purified on Ni-NTA; also called hTREML1; not shown: N-terminal polyhistidine tag from pET30
binds: [1] | [2] | [3] | [4]
